No constants are given. Whether binding was seen depends on the method and setting. In cells and extracts the contact can be indirect. Some binding calls cover weakened binding; strength is not graded here.

By UniProt entry, the sequences of proteins in these tests, tags left out. Where a name states a change or a piece, a line headed by the entry shows the natural chain unless it says otherwise.
UniProt Q00651: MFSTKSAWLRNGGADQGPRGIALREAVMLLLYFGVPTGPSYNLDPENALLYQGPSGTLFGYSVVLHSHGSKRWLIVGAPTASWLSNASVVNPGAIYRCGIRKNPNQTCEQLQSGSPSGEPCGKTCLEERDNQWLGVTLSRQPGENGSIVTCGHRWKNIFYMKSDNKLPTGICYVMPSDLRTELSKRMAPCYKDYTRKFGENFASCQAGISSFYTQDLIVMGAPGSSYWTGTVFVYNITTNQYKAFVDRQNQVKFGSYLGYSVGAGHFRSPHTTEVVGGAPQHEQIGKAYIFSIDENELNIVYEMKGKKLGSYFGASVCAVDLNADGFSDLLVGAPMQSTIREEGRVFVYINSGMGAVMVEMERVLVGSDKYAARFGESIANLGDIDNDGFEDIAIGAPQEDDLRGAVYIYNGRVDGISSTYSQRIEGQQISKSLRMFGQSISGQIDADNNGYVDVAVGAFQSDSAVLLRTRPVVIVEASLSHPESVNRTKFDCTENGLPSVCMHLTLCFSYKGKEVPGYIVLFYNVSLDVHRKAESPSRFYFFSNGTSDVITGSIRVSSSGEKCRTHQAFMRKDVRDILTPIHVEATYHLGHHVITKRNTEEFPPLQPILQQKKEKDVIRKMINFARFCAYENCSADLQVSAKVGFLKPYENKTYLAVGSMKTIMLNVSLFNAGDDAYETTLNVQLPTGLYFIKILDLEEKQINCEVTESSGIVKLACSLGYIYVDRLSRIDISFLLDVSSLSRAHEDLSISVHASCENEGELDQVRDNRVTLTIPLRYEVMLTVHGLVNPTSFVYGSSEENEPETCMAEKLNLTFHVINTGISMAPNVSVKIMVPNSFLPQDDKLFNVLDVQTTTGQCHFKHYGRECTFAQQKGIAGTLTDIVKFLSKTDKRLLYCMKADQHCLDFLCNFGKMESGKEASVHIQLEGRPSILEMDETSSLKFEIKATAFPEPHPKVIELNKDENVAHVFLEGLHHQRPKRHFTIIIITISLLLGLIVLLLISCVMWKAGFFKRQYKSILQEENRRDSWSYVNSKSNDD
UniProt P09055: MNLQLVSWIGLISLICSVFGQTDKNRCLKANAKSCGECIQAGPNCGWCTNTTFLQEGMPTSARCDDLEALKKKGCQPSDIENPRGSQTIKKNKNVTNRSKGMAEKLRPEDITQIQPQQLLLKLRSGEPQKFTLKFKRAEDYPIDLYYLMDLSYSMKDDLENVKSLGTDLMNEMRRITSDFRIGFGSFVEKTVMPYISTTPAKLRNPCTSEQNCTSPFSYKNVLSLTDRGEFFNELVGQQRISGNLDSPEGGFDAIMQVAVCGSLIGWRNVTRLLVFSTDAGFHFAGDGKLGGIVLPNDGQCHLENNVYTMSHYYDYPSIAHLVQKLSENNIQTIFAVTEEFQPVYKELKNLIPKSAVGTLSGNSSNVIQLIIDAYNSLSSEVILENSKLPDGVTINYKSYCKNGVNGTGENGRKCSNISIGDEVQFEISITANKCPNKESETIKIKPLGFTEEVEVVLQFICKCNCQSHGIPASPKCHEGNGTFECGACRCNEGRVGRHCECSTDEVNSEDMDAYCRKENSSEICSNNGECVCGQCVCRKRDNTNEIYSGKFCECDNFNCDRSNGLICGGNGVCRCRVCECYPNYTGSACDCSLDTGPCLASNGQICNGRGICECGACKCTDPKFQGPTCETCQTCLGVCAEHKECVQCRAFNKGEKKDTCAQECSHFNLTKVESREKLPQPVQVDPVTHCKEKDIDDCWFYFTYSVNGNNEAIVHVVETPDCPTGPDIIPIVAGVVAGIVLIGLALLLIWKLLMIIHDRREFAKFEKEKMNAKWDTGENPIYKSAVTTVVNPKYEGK
UniProt Q8VI36: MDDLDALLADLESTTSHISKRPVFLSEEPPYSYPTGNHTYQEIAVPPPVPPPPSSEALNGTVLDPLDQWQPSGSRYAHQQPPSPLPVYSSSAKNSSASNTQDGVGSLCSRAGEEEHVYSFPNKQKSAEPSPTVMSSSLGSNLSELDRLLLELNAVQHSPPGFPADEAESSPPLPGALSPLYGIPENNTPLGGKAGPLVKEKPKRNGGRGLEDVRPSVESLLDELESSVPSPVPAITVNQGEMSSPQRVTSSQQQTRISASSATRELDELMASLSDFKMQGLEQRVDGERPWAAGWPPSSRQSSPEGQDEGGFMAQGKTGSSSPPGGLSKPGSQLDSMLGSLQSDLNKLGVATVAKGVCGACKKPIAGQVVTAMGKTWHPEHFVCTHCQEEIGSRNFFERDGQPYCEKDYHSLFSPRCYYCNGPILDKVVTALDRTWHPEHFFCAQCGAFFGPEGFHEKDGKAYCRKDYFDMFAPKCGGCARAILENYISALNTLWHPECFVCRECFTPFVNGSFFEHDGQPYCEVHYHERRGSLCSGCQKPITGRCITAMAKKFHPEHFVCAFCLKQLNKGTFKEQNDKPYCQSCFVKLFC
UniProt P26039: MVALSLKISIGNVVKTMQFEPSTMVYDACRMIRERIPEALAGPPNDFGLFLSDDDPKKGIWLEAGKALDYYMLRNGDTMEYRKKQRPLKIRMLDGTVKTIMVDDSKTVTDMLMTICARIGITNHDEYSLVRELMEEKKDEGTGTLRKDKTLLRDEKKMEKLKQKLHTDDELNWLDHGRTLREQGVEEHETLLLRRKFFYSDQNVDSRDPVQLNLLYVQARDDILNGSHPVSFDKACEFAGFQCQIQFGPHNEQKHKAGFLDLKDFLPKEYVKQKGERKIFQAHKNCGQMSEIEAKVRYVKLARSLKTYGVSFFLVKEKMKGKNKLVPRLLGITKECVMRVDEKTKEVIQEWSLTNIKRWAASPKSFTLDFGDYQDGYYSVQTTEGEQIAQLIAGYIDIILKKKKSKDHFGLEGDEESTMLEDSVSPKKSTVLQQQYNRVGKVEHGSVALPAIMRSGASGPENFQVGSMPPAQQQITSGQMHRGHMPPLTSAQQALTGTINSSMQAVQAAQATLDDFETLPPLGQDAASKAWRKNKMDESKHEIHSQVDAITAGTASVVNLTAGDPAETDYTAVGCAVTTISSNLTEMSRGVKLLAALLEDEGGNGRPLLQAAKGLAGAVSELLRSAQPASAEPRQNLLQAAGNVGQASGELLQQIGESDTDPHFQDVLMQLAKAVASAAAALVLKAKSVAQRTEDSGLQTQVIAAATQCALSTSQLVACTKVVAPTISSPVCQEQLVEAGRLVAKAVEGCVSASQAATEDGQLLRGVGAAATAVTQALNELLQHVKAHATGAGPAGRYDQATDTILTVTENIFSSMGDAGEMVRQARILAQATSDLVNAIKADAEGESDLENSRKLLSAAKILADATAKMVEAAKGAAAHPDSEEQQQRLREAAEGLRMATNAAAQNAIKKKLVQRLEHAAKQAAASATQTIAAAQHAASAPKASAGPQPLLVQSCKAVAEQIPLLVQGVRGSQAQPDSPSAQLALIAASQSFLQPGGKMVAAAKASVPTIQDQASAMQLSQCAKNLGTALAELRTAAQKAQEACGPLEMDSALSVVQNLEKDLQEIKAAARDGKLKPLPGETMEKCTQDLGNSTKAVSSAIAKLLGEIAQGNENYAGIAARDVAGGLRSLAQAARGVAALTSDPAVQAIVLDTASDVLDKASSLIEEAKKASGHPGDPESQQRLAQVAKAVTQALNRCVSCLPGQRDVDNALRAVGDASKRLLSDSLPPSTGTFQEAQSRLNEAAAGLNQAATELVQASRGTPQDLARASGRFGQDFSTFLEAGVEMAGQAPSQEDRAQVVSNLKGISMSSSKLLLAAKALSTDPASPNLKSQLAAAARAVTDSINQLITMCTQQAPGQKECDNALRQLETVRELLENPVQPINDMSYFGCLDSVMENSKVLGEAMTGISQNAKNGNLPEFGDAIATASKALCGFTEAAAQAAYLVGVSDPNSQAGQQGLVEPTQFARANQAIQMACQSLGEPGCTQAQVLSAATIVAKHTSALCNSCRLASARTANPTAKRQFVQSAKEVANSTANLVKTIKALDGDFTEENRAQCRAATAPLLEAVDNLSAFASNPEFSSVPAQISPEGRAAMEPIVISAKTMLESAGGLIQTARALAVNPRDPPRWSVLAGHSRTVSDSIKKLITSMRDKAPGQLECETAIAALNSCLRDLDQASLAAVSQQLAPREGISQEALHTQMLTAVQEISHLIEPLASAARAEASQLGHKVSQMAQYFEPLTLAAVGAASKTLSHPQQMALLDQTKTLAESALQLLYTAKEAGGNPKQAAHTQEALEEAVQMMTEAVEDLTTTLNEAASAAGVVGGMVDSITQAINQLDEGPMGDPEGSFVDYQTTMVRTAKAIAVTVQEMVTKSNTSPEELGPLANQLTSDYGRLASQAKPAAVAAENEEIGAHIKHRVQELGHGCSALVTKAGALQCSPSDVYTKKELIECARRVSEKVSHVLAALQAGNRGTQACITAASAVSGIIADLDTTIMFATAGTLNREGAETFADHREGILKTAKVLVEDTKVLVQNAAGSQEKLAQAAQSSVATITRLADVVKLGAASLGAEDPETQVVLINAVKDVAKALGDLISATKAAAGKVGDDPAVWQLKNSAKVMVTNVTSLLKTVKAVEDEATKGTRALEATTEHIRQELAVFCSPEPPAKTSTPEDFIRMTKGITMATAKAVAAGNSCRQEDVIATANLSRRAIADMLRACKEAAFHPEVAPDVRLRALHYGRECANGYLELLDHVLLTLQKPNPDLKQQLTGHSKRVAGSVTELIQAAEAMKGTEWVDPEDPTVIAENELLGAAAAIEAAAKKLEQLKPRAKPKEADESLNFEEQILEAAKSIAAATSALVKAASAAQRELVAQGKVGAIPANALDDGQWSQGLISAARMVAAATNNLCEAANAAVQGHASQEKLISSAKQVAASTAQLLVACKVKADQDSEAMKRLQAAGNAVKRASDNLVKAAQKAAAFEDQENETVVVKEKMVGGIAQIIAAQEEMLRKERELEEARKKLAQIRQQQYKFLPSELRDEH

These results are taken from patent publication US20100278837A1, “Compositions And Methods For Reducing Cancer And Inflammation” (The Regents of the University of California, priority 2009, published 2010).

Assay [1] deals with T1, murine integrin α4β1 (wildtype) of CD11b+ myeloid cells (mouse) (UniProt Q00651+P09055). The assay can be described thus: co-immunoprecipitation of integrin α4, immunoblot (FIG. 38a-c). A general note: In western blotting, separated proteins are transferred to a membrane and probed.
Assay [2] addresses T1, murine integrin α4β1 (wildtype) of CD11b+ myeloid cells (mouse). The assay can be described thus: co-immunoprecipitation with anti-α4β1 (PS/2), immunoblot (FIG. 3d).

As for “paxillin (murine, endogenous in bone marrow derived myeloid cells) (from UniProt Q8VI36 1-591)”, the binding entry in assay [1] and in assay [2] was “binds” each time.

On to “talin (murine, endogenous in bone marrow derived myeloid cells) (from UniProt P26039 1-2541)”, for which the binding result in assay [1] and in assay [2] was “binds” in each case.
